Laboratory results: PubChem BioAssay AID1224830 (NIAID, 2016)
Aim: 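Genes whose knock-down alters the TNF-alpha reporter response to LPS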 (primary screen). System: human THP-1 monocytic leukaemia cells, TNF dual-luciferase reporter clone, PMA-differentiated to macrophage-like cells. Reagent: siRNA pool against human genes, 50 nM. Duration: LPS for 4 h, given about 3 days after siRNA transfection. Challenge: bacterial LPS (TLR4 ligand), 10 ng/ml. Read-out: 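TNF firefly reporter luminescence divided by renilla, normalised to the plate median, then turned into a robust z-score for each replicate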. Reading the numbers: TNF reporter robust z-score: higher = stronger TNF reporter response to LPS. Rule for the call: 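a well is active when its z-score exceeds 2.8 or falls below -1.5; control wells carry no call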.
The deposit covers about 18,000 reagents; below is a part drawn at random. About 2,900 of all reagents (16%) count as active. 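Calls are made per well; low scores hint the gene aids the LPS response, high scores that it dampens it.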 Repeated entries: four replicate wells of each siRNA pool.

For C6orf120 (GeneID 387263), what does the deposit list?
TNF reporter robust z-score: -0.61; outcome: inactive

For C6orf120 (GeneID 387263), how do the results read?
TNF reporter robust z-score: 0.3; outcome: inactive

With C6orf120 (GeneID 387263), how do the results read?
TNF reporter robust z-score: -0.9; outcome: inactive

For C6orf120 (GeneID 387263), what was measured?
TNF reporter robust z-score: -1.41; outcome: inactive

With ATP11B (GeneID 23200), how do the results read?
TNF reporter robust z-score: 0.89; outcome: inactive

What did the screen give for ATP11B (GeneID 23200)?
TNF reporter robust z-score: 1.7; outcome: inactive

What did the screen give for ATP11B (GeneID 23200)?
TNF reporter robust z-score: 1.07; outcome: inactive

With ATP11B (GeneID 23200), how do the results read?
TNF reporter robust z-score: 1.43; outcome: inactive

For LRCH1 (GeneID 23143), what does the deposit list?
TNF reporter robust z-score: 0.6; outcome: inactive

For LRCH1 (GeneID 23143), what does the deposit list?
TNF reporter robust z-score: 1.03; outcome: inactive

How did the screen score LRCH1 (GeneID 23143)?
TNF reporter robust z-score: 0.65; outcome: inactive

For BORCS6 (GeneID 54785), what was measured?
TNF reporter robust z-score: -0.21; outcome: inactive

For BORCS6 (GeneID 54785), what was measured?
TNF reporter robust z-score: 0.24; outcome: inactive

For BORCS6 (GeneID 54785), what was measured?
TNF reporter robust z-score: -0.3; outcome: inactive

Which result is listed for BORCS6 (GeneID 54785)?
TNF reporter robust z-score: 0.92; outcome: inactive

Which result is listed for ELK3 (GeneID 2004)?
TNF reporter robust z-score: 0.32; outcome: inactive

With ELK3 (GeneID 2004), what was measured?
TNF reporter robust z-score: 1.1; outcome: inactive

With ELK3 (GeneID 2004), what was measured?
TNF reporter robust z-score: 0.04; outcome: inactive

With ELK3 (GeneID 2004), what was measured?
TNF reporter robust z-score: 0.95; outcome: inactive

For SEC61B (GeneID 10952), how do the results read?
TNF reporter robust z-score: 0.03; outcome: inactive

With SEC61B (GeneID 10952), what was measured?
TNF reporter robust z-score: 0.57; outcome: inactive

For SEC61B (GeneID 10952), how do the results read?
TNF reporter robust z-score: -1.85; outcome: active

What is on record for SEC61B (GeneID 10952)?
TNF reporter robust z-score: -0.93; outcome: inactive

For FURIN (GeneID 5045), what was measured?
TNF reporter robust z-score: -0.5; outcome: inactive

For FURIN (GeneID 5045), what does the deposit list?
TNF reporter robust z-score: 4.67; outcome: active

What did the screen give for FURIN (GeneID 5045)?
TNF reporter robust z-score: 0.65; outcome: inactive

For FURIN (GeneID 5045), what does the deposit list?
TNF reporter robust z-score: -0.77; outcome: inactive

With ZNF219 (GeneID 51222), how do the results read?
TNF reporter robust z-score: -0.57; outcome: inactive

Which result is listed for ZNF219 (GeneID 51222)?
TNF reporter robust z-score: 0.27; outcome: inactive

For ZNF219 (GeneID 51222), how do the results read?
TNF reporter robust z-score: -0.2; outcome: inactive

With ZNF219 (GeneID 51222), what was measured?
TNF reporter robust z-score: 0.95; outcome: inactive

Which result is listed for SPACA3 (GeneID 124912)?
TNF reporter robust z-score: -0.41; outcome: inactive

Which result is listed for SPACA3 (GeneID 124912)?
TNF reporter robust z-score: -0.5; outcome: inactive

Which result is listed for SPACA3 (GeneID 124912)?
TNF reporter robust z-score: -1.06; outcome: inactive

What is on record for SPACA3 (GeneID 124912)?
TNF reporter robust z-score: 0.02; outcome: inactive

What did the screen give for PIWIL2 (GeneID 55124)?
TNF reporter robust z-score: 1.14; outcome: inactive

With PIWIL2 (GeneID 55124), what was measured?
TNF reporter robust z-score: 0.08; outcome: inactive

For PIWIL2 (GeneID 55124), how do the results read?
TNF reporter robust z-score: -0.58; outcome: inactive

For PIWIL2 (GeneID 55124), how do the results read?
TNF reporter robust z-score: 0.52; outcome: inactive

How did the screen score PMF1 (GeneID 11243)?
TNF reporter robust z-score: 0.43; outcome: inactive

For PMF1 (GeneID 11243), what was measured?
TNF reporter robust z-score: -0.2; outcome: inactive

With PMF1 (GeneID 11243), what was measured?
TNF reporter robust z-score: 0.9; outcome: inactive

What is on record for PMF1 (GeneID 11243)?
TNF reporter robust z-score: -0.12; outcome: inactive

For DUSP10 (GeneID 11221), what was measured?
TNF reporter robust z-score: -1.77; outcome: active

For DUSP10 (GeneID 11221), how do the results read?
TNF reporter robust z-score: -0.89; outcome: inactive

What is on record for DUSP10 (GeneID 11221)?
TNF reporter robust z-score: -1.51; outcome: active

Which result is listed for DUSP10 (GeneID 11221)?
TNF reporter robust z-score: -0.52; outcome: inactive

An excerpt of the results above, as a working copy:
SEC61B (GeneID 10952) → TNF reporter robust z-score = -0.93; outcome = inactive
FURIN (GeneID 5045) → TNF reporter robust z-score = -0.5; outcome = inactive
FURIN (GeneID 5045) → TNF reporter robust z-score = 4.67; outcome = active
FURIN (GeneID 5045) → TNF reporter robust z-score = 0.65; outcome = inactive
